Test results as given in patent publication US20100015262A1, “NOVEL USE OF COMPOUNDS AND COMBINATIONS OF COMPOUNDS FOR IMPROVING THE PHYSICAL APPEARANCE” (priority 2006, published 2010).
At least one compound was matched to its structure with a doubt left. Some compounds share one wording; it may come from a single statement.

What follows are compounds tested on C3H10T1/2 cells (assay: Adipocyte differentiation: lipid accumulation in induced C3H10T1/2 pre-adipocytes (Bodipy stain, Cellomics ArrayScan)). Conditions: single substances, summary of Table 1.
Type: cell-based
Experimental: In the present invention, the effect of agents was identified by using cellular assays that measure the effect on adipocyte differentiation. Adherent pre-adipocyte cells, C3H10T1/2, were used; they were cultured in complete DMEM/FCS, i.e. Dulbecco's modified essential medium (DMEM) supplemented with penicillin/streptomycin [50 U penicillin/ml, […] streptomycin/ml] and 10% fetal calf serum (FCS) and passaged every 3-5 days. For experiments, C3H10T1/2 cells were re-suspended in DMEM/FCS without phenol red and seeded at […] cells/per well in collagen I pre-coated 24-well plates. After 2-3 days cells reached confluence. Culture medium was changed and cell differentiation was induced by adding induction medium consisting of rosiglitazone and insulin (at 50 μmol/L and 200 nmol/L, respectively). In some cases the induction medium consisted of […] dexamethasone and 500 μmol/L 3-isobutyl-1-methylxanthine. Control cells were cultured in DMEM/FCS containing only insulin. Where appropriate, substances were added to the differentiation medium at various concentrations at the time of induction, except for carotenoids which were added at the beginning of culture in order to preload the cells. The induction medium was changed every 2-3-days. Seven days after induction, cells were fixed in 60% isopropanol (40% water). After two washes in phosphate buffered saline (PBS), cells were stained with the neutral lipid stain Bodipy® 493/505 (0.5 μg/ml) and the nuclear stain Hoechst 33342 dye (2 μg/ml) for 30 minutes in the dark. After washing with PBS, the stained cells were stored at 4° C. in PBS. The extent of differentiation was quantified in a Cellomics array™ Array Scan V^Ti (http://www.cellomics.com/) using the Spot Detector BioApplication that had been optimized for detecting lipid accumulation in differentiated adipocytes. Effects of treatments were quantified using the ‘SpotCount’ and ‘SpotCountPerObject’ parameter that adequately reflects the differentiation status of the adipocytes. […]

| SMILES | Effect on amount of cytoplasmic lipids (in words) |
| --- | --- |
| CC/C=C\C/C=C\C/C=C\C/C=C\C/C=C\C/C=C\CCC(=O)O [DHA, docosahexaenoic acid] | significantly reduced |
| CC/C=C\C/C=C\C/C=C\C/C=C\C/C=C\CCCC(=O)O [EPA, eicosapentaenoic acid] | significantly reduced |
| OCCc1ccc(O)c(O)c1 [Hydroxytyrosol] | significantly reduced |
